# Laboratory results as given in PubChem BioAssay AID1347426 (Functional Genomics Laboratory (NCATS/FGL), 2020).
# The whole screen tested about 31,000 sequences, of which about 1,400 (4.5%) were called active.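 Rule for the calls: active = median seed-adjusted z-score above 1 or below -1; inactive = the rest.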 The list shows a part of the results.
# Experiment: Novel Modifiers of Survival Motor Neuron (SMN) Protein: Gene Identification via Genome-wide siRNA Screen;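 note: luminescence tracks full-length SMN protein made from the SMN2 reporter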
# Conditions: HEK293T SMN2-luciferase reporter, siRNA knockdown, 72 h; actives lie on both sides
# Outline: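 HEK293T cells stably expressing an SMN2 splicing/cDNA-luciferase reporter were reverse-transfected with a druggable-genome siRNA library and read by luminescence at 72 hours; hits defined by MAD score above 1.0 or below -1.0.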
row,Sequence,median seed-adjusted z-score
1,GAAUAUAACCUGCCGCUUUTT against CD44,inactive: 0
2,GGACCUUGUCUGUACUCAUTT against DRD1,inactive: -0.508
3,GGAUCUGUCUGAUAUUGCUTT against GDAP2,inactive: 0.199
4,CGAGAGAAUAUGUCACAUUTT against ADAMTS13,inactive: -0.276
5,CCAUCUAUGAUGAACCUGATT against DOK1,inactive: 0.0532
6,AACUCUACACGAUUCUUCATT against CSNK1A1L,inactive: -0.5
7,CUACUGUCUUUGACAAUUATT against RAC1,inactive: -0.0348
8,GUACGACUCCAGAUUCCAATT against ZNF521,inactive: -0.331
9,CCAGAACCCAAGCUGUUAATT against RNF130,inactive: -0.21
10,GCAAAGUGCCGAAACAAGATT against ATF3,inactive: -0.000485
11,GGACAUACUACAUUUCCUATT against TRIM45,inactive: -0.0974
12,CCGCAGACCUACUAAAACATT against MAP3K8,inactive: -0.533
13,GUGUUAAAGCUGAACAGGATT against LRIG3,inactive: 0.882
14,GGAUAUUACCUCUCCAGAATT against TRIM21,inactive: 0.524
15,GGACAACAACGAAUGAAAUTT against SETD1A,inactive: 0.0595
16,CAUAUUCUAUUGCUCAAAATT against BPNT1,inactive: 0.0844
17,GGAAAUCUGUCACAUCGUATT against NR1I3,inactive: 0.000933
18,GGGCAACUCUUCAUCUACATT against SLC5A10,inactive: 0.669
19,ACCUCAACAUGCACCCAGATT against SMPD2,inactive: -0.406
20,GAUUGUUCGCUAUCCACGATT against CYP7A1,inactive: -0.0092
21,CCACUAACCAAUGACGGAATT against APPL2,inactive: -0.245
22,GCAGCCUAAUCGACAUAGATT against RASGRP2,inactive: -0.00329

row,Sequence,median seed-adjusted z-score
1,CCUGAUAGCUGGACGGAUATT against SLC5A4,inactive: 0.602
2,GCUAGAUGCUGGGAUGAGATT against SMC1B,inactive: 0
3,AGCUUGACAUUCUCAAAGATT against TIMM44,inactive: -0.569
4,ACAUCUUCAAGGCCCUUUUTT against CTDSP2,inactive: 0.498
5,CGACAGCGACUGCAUGAGATT against SURF6,inactive: 0.122
6,GAACCGAGGUCGACAUGAATT against IMP4,inactive: -0.359
7,ACAGAACCGUGGUUAACAUTT against SPR,inactive: 0.0329
8,UGAGGUCACAUUUCACUUATT against MAFF,inactive: 0.42
9,GCUAUGAGAUGGUCAAAAUTT against LDHAL6A,inactive: -0.15
10,GCAUGUGACUUACCUGGGATT against FUT5,inactive: 0
11,CCUUCCUAAUUUAACCAGATT against IPPK,inactive: 0.389
12,GAACUAUGCUAUACCAGAATT against IQCH,inactive: 0
13,UGCUCAGCAGUACAACGUATT against SYN1,inactive: -0.458
14,GGUGGACAUGAGCAAAGUATT against SRRM1,inactive: -0.861
15,GCAGCUGAGUAUCGAGAAATT against PIK3R1,inactive: 0.196
16,CCGCUGUGCUCAAAUCUGATT against RBM10,inactive: -0.0114
17,GGAAACGACCUGUCAAAGATT against PHAX,inactive: -0.0716
18,CAAGCAAAUUCAUAGUGUATT against ZNF493,inactive: 0.0872
19,GCACGACGACAAUAUCAUUTT against PEX3,inactive: 0.142
20,CAAGUGUUCUCACCAGAGATT against ZBTB25,inactive: 0
21,GUGUUUAGGUAAUCUAAUUTT against CDKL2,inactive: -0.293
22,AGACAGCUGCGAAUCUGGATT against MEFV,inactive: 0

row,Sequence,median seed-adjusted z-score
1,UGAUCAUCAUGCUUCCGGATT against SERPINB6,inactive: 0.0155
2,CUGUGAAGAUAGAAGGAUATT against CAPZA1,inactive: -0.0237
3,GAAUCUGGUGGGCCCUUUATT against POFUT2,inactive: -0.86
4,CGAGGAUAUUGACUGGGUATT against PRKCZ,inactive: -0.175
5,GAAUAGAGUCUGUUAAUGUTT against E2F8,inactive: 0.209
6,GGCUGAAUUUUGCAAGGCATT against GOT2,inactive: 0.205
7,CAAGCAAAUUGAGAAUAUATT against GBX2,inactive: -0.442
8,GAUGAGUGUUACCAAGUAATT against PDS5A,inactive: -0.29
9,CGGGCUUAAUUAUUAGUAATT against ZNF248,inactive: -0.0486
10,GCCGAGCAAUAGUAACGAUTT against ZMIZ1,inactive: -0.382
11,CACUUCCAGUCUUACAUCATT against BMPR1B,inactive: 0.5
12,GUGCGAAAGAGAAUCUUAATT against SPIRE1,inactive: 0.336
13,CUAUUGUCCCUUCUAAUCATT against UHRF2,inactive: -0.0941
14,AAACAAUCCGAAAAUAUGATT against KLK13,inactive: 0.452
15,AGGUCAUGCCGUACGCACATT against OLIG2,inactive: 0.00944
16,GCAUAACGAUUGUGGAAGATT against STXBP1,inactive: -0.0496
17,CGAGUUGCUUAUGAAAUUATT against FUT8,inactive: 0.464
18,GUCCCUAUCUAUUCAGUUATT against PHOSPHO1,inactive: -0.296
19,GGACCCAUGUCUUCGGAAATT against HBEGF,inactive: -0.903
20,AUCAAGGAGUCGACAUUAATT against HOXB2,inactive: 0.271
21,CCUUUAAGCUGACCACAGATT against PI4KB,inactive: 0.105
22,GCUCAUAUCUUACCAAACATT against ZNF560,inactive: 0.0927

# 7 records picked at random from those above, as already listed:
row,Sequence,median seed-adjusted z-score
6,GAACCGAGGUCGACAUGAATT against IMP4,inactive: -0.359
13,GUGUUAAAGCUGAACAGGATT against LRIG3,inactive: 0.882
6,GGCUGAAUUUUGCAAGGCATT against GOT2,inactive: 0.205
19,GCACGACGACAAUAUCAUUTT against PEX3,inactive: 0.142
7,CAAGCAAAUUGAGAAUAUATT against GBX2,inactive: -0.442
1,CCUGAUAGCUGGACGGAUATT against SLC5A4,inactive: 0.602
9,CGGGCUUAAUUAUUAGUAATT against ZNF248,inactive: -0.0486

# Continuation:

row,Sequence,median seed-adjusted z-score
1,GGAGUCCUAUGUGGGCAAATT against FKSG30,inactive: -0.292
2,GGAUUAUGAAAUCACCAAATT against PCDH18,inactive: -0.132
3,GACUUUUCUUAGGAUCAGATT against DYNLRB2,inactive: 0.534
4,GGAACACUAAGGUCAAAUATT against B3GNT4,inactive: 0.124
5,ACAGCACGGCUGACAGAGATT against ICAM2,inactive: 0.269
6,GACUAAUGGAGACCCAAGATT against DARS2,inactive: 0.0673
7,CGCCUAAGCUCGCACUUCATT against ZNF771,inactive: 0.108
8,GCAGAUAUCUGAUAGCCCUTT against PPA2,inactive: -0.497
9,GGACUGCUAUGACCGGCUATT against RGS11,inactive: 0
10,GUGAUGGAAUUGUAAAUGATT against RRM2B,inactive: -0.128
11,CCUCAGUGAUUCUCGGUAATT against EXOSC2,inactive: -0.0798
12,CUCCCAGAUCUGUGCAAAATT against ATP5E,inactive: -0.724
13,GGACAUCGCGAGUACCUAUTT against NEDD4L,inactive: 0.212
14,GAAUCUACAGGAAACGAGATT against SETD8,active: -1.52
15,GUACUGCCGUGUCUAUAUATT against ADRA1B,inactive: -0.472
16,GGAGUGAAGUUCGAUGAAATT against HSP90B1,inactive: 0
17,ACAUGUGCUUGGUACAAAATT against PTGIR,inactive: -0.0806
18,GAUGUGGACUGGAUAGUCATT against NTRK3,inactive: 0
19,CCAGUUAUCAAGUUCGAUATT against ALDH5A1,inactive: 0.339
20,GGCUAUAAGGUGAUGUAUATT against SDK2,inactive: 0.908
21,GUCUCGUGCUGUUCGUCAATT against MYH10,inactive: 0.0877
22,GCCGGUUAGUAUACAAAGATT against SLC37A2,inactive: 0.134

row,Sequence,median seed-adjusted z-score
1,GAUUUUCAAGGGAAUGACATT against KLRC1,inactive: 0.171
2,GCUCAGGAAUGUUAGACGATT against ATXN3,inactive: 0.04
3,GGUAGUCCAUGGACAUUAATT against ANGPTL3,inactive: 0.117
4,GGGUACAUCUCUUCUGCUATT against KRT36,inactive: 0.766
5,GACCAAGGCUAAAACGAAUTT against ARHGAP29,inactive: -0.0483
6,GGCUCCAUCGUGUCGAAAATT against KIF18A,inactive: -0.159
7,GGAUAUAGACGAUGACCUATT against SCNN1G,inactive: -0.616
8,GCGGUGUUCUCCAUCCUGATT against MRGPRF,inactive: -0.654
9,GGAAGUACAUCAUGUCAGATT against TSHZ3,inactive: 0.301
10,CUUGUCAAGUACGACCUUATT against NINJ1,inactive: -0.061
11,GCAAUAUCCAAUUGUUAUATT against L2HGDH,inactive: -0.346
12,GCUAUGACUUCACACCUAUTT against HBP1,inactive: -0.117
13,GGGAUGGACGAAUUACGGUTT against CABP4,inactive: 0.146
14,CGGAGUUCAUAAUGAAUAATT against BCL2A1,inactive: 0.0557
15,GAAUGACCAAGAAUGUAGATT against DUOX2,inactive: 0.525
16,UCAUGAGCAUCGACCGAUATT against SSTR2,inactive: -0.162
17,CAGAGGCCGUUGGUACUUATT against STAT4,inactive: 0.734
18,GCAAUACGGAAGUAAUGUUTT against DDX5,inactive: 0.891
19,CGCUGAUACUAACAAUUGATT against AOX1,inactive: -0.0717
